No constants are given. Whether binding was seen depends on the method and setting. Binding seen in cells or lysates may run through a third protein. Some entries that bind do so weakly or less than the wild type.

By UniProt entry, the sequences of proteins in these tests, tags left out. Residues count along the entry.
UniProt P16390: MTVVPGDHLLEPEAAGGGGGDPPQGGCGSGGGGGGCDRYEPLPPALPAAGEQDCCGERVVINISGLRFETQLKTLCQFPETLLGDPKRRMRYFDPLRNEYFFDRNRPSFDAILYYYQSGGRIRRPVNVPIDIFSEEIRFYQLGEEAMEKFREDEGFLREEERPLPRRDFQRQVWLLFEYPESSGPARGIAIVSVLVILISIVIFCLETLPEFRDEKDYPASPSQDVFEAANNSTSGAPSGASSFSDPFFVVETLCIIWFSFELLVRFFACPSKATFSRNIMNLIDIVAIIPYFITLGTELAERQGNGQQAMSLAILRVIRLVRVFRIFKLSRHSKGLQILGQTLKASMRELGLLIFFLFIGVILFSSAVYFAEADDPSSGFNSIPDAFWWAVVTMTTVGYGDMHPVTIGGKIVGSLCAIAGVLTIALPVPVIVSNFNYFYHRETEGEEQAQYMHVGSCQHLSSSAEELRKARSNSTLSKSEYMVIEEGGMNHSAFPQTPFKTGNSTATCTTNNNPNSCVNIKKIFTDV
UniProt P15384: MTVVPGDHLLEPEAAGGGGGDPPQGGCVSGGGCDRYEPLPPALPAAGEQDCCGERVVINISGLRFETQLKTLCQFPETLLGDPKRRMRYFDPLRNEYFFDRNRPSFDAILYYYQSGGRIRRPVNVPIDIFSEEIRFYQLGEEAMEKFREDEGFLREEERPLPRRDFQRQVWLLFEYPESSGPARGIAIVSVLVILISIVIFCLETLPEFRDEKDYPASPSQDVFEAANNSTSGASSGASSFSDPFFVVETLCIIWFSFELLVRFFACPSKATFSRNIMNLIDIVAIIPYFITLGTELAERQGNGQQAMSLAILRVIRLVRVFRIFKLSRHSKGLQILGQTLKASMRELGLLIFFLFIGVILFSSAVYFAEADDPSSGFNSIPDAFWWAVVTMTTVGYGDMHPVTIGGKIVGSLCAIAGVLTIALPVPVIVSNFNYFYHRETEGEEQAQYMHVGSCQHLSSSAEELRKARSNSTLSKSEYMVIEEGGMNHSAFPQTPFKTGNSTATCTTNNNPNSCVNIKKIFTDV
UniProt P15209, residues 32-821: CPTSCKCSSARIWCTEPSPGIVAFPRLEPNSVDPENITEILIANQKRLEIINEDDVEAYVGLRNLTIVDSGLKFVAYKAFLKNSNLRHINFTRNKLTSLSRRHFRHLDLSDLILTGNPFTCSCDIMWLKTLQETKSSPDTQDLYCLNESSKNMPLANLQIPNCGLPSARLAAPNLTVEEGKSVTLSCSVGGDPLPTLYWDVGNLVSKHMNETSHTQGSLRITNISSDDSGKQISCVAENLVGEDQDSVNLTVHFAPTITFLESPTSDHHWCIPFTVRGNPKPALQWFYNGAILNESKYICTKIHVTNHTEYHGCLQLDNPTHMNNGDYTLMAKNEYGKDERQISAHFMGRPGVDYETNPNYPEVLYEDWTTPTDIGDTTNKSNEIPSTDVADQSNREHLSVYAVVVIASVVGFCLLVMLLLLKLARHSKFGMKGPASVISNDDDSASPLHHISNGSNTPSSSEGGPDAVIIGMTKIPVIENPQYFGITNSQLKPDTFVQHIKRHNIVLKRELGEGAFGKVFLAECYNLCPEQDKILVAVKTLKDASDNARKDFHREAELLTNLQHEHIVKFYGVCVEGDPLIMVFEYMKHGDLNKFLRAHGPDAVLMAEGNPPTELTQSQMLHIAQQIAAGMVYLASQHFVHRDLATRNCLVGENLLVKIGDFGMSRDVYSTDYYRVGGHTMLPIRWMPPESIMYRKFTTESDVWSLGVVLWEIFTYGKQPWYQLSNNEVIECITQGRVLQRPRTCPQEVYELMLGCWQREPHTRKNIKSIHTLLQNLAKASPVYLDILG

The source of these data is paper PMC2656512.

For assay [1], the target named is Kv1.3 channel, endogenous in mouse brain (mouse (endogenous in olfactory bulb and hippocampus)) (UniProt P16390). Put plainly: co-IP; lysates of olfactory bulb or hippocampus of P20 C57BL/6 mice; IP with anti-Kv1.3 (AU13) or anti-TrkB, protein A-sepharose, Western blot with anti-TrkB, anti-Shc or anti-Grb10. Background: Immunoblotting shows a protein as a band on a membrane.

The next assay addresses myc-tagged Kv1.3 channel (UniProt P15384). Put plainly: co-IP; HEK 293 cells transiently transfected with channel, kinase and adaptor cDNAs, stimulated with BDNF or vehicle for 10 minutes; lysis in 1% Triton X-100 buffer; IP with anti-myc (Kv1.3), anti-Grb10 or anti-TrkB, protein A-sepharose, Western blot; for nShc also with TrkB or Y490F TrkB (TrkBShc-) co-transfected.
Assay [2] deals with TrkB kinase, endogenous in mouse brain (mouse (endogenous in olfactory bulb and hippocampus)) (UniProt P15209). The assay is described as follows: co-IP; lysates of olfactory bulb or hippocampus of P20 C57BL/6 mice; IP with anti-Kv1.3 (AU13) or anti-TrkB, protein A-sepharose, Western blot with anti-TrkB, anti-Shc or anti-Grb10.

As to “TrkB kinase, endogenous in mouse brain (from UniProt P15209 32-821) (receptor)”, the binding result in assay [1] is “binds”.

B1: neuronal Src homology and collagen (nShc), transfected (protein, UniProt Q92529 1-594)
chain: MLPRTKYNRFRNDSVTSVDDLLHSLSVSGGGGKVSAARATPAAAPYLVSGEALRKAPDDGPGSLGHLLHKVSHLKLSSSGLRGLSSAARERAGARLSGSCSAPSLAAPDGSAPSAPRAPAMSAARKGRPGDEPLPRPPRGAPHASDQVLGPGVTYVVKYLGCIEVLRSMRSLDFSTRTQITREAISRVCEAVPGAKGAFKKRKPPSKMLSSILGKSNLQFAGMSISLTISTASLNLRTPDSKQIIANHHMRSISFASGGDPDTTDYVAYVAKDPVNRRACHILECCDGLAQDVIGSIGQAFELRFKQYLQCPTKIPALHDRMQSLDEPWTEEEGDGSDHPYYNSIPSKMPPPGGFLDTRLKPRPHAPDTAQFAGKEQTYYQGRHLGDTFGEDWQQTPLRQGSSDIYSTPEGKLHVAPTGEAPTYVNTQQIPPQAWPAAVSSAESSPRKDLFDMKPFEDALKNQPLGPVLSKAASVECISPVSPRAPDAKMLEELQAETWYQGEMSRKEAEGLLEKDGDFLVRKSTTNPGSFVLTGMHNGQAKHLLLVDPEGTIRTKDRVFDSISHLINHHLESSLPIVSAGSELCLQQPVERKQ
As to B1, the binding entry with myc-tagged Kv1.3 channel is reported as “binds”.

B2: Grb10 adaptor protein, endogenous in mouse brain (protein, UniProt Q60760 1-621)
chain: MNNDINSSVESLNSACNMQSDTDTAPLLEDGQHASNQGAASSSRGQPQASPRQKMQRSQPVHILRRLQEEDQQLRTASLPAIPNPFPELTGAAPGSPPSVAPSSLPPPPSQPPAKHCGRCEKWIPGENTRGNGKRKIWRWQFPPGFQLSKLTRPGLWTKTTARFSKKQPKNQCPTDTVNPVARMPTSQMEKLRLRKDVKVFSEDGTSKVVEILTDMTARDLCQLLVYKSHCVDDNSWTLVEHHPQLGLERCLEDHEIVVQVESTMPSESKFLFRKNYAKYEFFKNPVNFFPDQMVNWCQQSNGGQAQLLQNFLNTSSCPEIQGFLQVKEVGRKSWKKLYVCLRRSGLYYSTKGTSKEPRHLQLLADLEESSIFYLIAGKKQYNAPNEHGMCIKPNKAKTEMKELRLLCAEDEQIRTCWMTAFRLLKYGMLLYQNYRIPQRKGLPPPFNAPMRSVSENSLVAMDFSGQIGRVIDNPAEAQSAALEEGHAWRKRSTRMNILSSQSPLHPSTLNAVIHRTQHWFHGRISREESHRIIKQQGLVDGLFLLRDSQSNPKAFVLTLCHHQKIKNFQILPCEDDGQTFFTLDDGNTKFSDLIQLVDFYQLNKGVLPCKLKHHCIRVAL
Consider B2, for which the binding result in assay [1] and in assay [2] was “binds” each time.
